{"sequences": {"note": "By UniProt entry, the sequences of proteins in these tests, tags left out. Residues count along the entry.", "UniProt Q9NRD9, 20-1551": "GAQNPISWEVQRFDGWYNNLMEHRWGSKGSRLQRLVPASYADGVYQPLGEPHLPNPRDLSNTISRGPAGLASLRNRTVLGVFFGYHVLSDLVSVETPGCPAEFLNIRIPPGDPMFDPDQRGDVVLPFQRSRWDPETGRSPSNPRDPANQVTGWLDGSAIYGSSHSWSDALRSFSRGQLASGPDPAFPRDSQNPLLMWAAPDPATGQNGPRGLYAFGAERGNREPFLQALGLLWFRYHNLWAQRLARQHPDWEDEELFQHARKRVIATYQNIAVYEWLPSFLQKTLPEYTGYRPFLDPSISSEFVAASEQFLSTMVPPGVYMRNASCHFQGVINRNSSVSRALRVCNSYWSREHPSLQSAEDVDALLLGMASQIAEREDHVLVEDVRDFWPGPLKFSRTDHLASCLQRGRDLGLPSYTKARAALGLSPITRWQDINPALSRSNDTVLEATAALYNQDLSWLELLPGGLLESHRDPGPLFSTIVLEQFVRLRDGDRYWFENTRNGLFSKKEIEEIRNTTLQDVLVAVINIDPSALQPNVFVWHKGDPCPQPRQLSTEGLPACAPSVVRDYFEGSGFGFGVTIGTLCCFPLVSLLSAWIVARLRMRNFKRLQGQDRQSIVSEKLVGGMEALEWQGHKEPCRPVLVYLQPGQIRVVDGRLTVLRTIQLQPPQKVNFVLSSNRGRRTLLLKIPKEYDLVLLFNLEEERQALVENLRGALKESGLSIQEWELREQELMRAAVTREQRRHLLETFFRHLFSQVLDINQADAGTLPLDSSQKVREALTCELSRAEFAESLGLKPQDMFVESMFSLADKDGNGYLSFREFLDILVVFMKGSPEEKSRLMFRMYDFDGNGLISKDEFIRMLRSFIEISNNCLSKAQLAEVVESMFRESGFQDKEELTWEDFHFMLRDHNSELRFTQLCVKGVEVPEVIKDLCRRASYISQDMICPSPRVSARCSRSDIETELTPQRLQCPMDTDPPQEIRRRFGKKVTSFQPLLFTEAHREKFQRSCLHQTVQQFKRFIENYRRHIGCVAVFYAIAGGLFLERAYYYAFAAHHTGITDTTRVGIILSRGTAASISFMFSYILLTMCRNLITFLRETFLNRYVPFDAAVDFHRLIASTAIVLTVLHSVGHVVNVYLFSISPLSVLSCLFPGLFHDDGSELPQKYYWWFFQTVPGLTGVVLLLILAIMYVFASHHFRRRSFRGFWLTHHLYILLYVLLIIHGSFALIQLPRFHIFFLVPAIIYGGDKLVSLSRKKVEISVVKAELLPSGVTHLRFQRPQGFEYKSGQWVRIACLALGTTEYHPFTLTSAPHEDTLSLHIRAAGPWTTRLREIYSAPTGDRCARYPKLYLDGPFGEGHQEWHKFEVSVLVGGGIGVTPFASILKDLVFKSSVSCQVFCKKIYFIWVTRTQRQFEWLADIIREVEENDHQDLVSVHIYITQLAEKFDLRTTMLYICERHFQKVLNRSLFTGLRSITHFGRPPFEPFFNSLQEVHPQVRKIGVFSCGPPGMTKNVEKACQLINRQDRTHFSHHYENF"}, "source": "paper doi:10.1101/2020.09.23.309245", "key": {"[1]": {"biological_target": "human DUOX1 (hDUOX1), matured protein (20-1551) with N-terminal GFP tag (human) (UniProt Q9NRD9)", "assay": "SEC"}, "[2]": {"biological_target": "human DUOX1 (hDUOX1), matured protein (20-1551) with N-terminal GFP tag (human) (UniProt Q9NRD9)", "assay": "cryo-EM structure"}, "[3]": {"biological_target": "human DUOX1 (hDUOX1), matured protein (20-1551) with N-terminal GFP tag (human) (UniProt Q9NRD9)", "assay": "cryo-EM structure", "remark": "listed apart in the source"}}, "note": "No constants are given. Whether binding was seen depends on the method and setting. Some results given as binding are weak or reduced against the parent protein; the word gives no strength. Where a sequence is shown, tags or fusion partners need not be part of it.", "data": [{"binder": "human DUOXA1 (hDUOXA1) with a C-terminal MBP-mScarlet tag (protein, UniProt Q1HG43 1-330) MATLGHTFPFYAGPKPTFPMDTTLASIIMIFLTALATFIVILPGIRGKTRLFWLLRVVTSLFIGAAILAVNFSSEWSVGQVSTNTSYKAFSSEWISADIGLQVGLGGVNITLTGTPVQQLNETINYNEEFTWRLGENYAEEYAKALEKGLPDPVLYLAEKFTPRSPCGLYRQYRLAGHYTSAMLWVAFLCWLLANVMLSMPVLVYGGYMLLATGIFQLLALLFFSMATSLTSPCPLHLGASVLHTHHGPAFWITLTTGLLCVLLGLAMAVAHRMQPHRLKAFFNQSVDEDPMLEWSPEEGGLLSPRYRSMADSPKSQDIPLSEASSTKAY", "values": [{"measurement": "binding", "setting": "[1]", "result": "binds"}]}, {"binder": "human DUOXA1 (hDUOXA1), non-tagged (protein, UniProt Q1HG43 1-330, N-linked glycosylation on N109) MATLGHTFPFYAGPKPTFPMDTTLASIIMIFLTALATFIVILPGIRGKTRLFWLLRVVTSLFIGAAILAVNFSSEWSVGQVSTNTSYKAFSSEWISADIGLQVGLGGVNITLTGTPVQQLNETINYNEEFTWRLGENYAEEYAKALEKGLPDPVLYLAEKFTPRSPCGLYRQYRLAGHYTSAMLWVAFLCWLLANVMLSMPVLVYGGYMLLATGIFQLLALLFFSMATSLTSPCPLHLGASVLHTHHGPAFWITLTTGLLCVLLGLAMAVAHRMQPHRLKAFFNQSVDEDPMLEWSPEEGGLLSPRYRSMADSPKSQDIPLSEASSTKAY", "values": [{"measurement": "binding", "setting": "[2]", "result": "binds"}, {"measurement": "binding", "setting": "[3]", "result": "binds"}, {"measurement": "binding", "setting": "[1]", "result": "binds"}]}]}
